For at least one entry, the source does not settle the construct or the ends of the probe. For some of these results: Results from cells or extracts need not show a direct contact. For some of these results: Weaker means in comparison with the reference protein, sequence or condition of that experiment.

Sequences of proteins named here, by UniProt entry; tags and fusion partners are left off. Residues count along the entry.
UniProt P16473, 21-764: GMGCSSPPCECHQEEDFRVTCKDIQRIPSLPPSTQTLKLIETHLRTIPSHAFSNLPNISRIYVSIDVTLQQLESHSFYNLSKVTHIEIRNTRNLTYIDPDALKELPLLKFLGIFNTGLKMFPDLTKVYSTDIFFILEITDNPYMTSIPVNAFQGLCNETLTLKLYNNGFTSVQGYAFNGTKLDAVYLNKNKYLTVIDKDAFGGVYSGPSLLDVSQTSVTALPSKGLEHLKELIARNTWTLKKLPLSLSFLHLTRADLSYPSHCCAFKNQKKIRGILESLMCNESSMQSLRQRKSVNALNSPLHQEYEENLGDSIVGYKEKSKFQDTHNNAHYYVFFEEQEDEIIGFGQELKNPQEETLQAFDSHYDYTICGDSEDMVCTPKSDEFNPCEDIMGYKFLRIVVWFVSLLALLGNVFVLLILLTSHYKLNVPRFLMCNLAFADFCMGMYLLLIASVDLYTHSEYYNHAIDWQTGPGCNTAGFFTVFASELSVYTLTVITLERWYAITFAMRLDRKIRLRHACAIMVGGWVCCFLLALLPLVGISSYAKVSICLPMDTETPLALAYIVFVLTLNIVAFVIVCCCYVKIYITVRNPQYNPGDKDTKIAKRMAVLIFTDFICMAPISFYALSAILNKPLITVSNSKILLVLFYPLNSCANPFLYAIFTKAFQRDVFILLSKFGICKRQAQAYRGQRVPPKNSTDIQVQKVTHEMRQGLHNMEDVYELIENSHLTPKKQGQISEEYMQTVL
UniProt P16473, 21-764 K218A: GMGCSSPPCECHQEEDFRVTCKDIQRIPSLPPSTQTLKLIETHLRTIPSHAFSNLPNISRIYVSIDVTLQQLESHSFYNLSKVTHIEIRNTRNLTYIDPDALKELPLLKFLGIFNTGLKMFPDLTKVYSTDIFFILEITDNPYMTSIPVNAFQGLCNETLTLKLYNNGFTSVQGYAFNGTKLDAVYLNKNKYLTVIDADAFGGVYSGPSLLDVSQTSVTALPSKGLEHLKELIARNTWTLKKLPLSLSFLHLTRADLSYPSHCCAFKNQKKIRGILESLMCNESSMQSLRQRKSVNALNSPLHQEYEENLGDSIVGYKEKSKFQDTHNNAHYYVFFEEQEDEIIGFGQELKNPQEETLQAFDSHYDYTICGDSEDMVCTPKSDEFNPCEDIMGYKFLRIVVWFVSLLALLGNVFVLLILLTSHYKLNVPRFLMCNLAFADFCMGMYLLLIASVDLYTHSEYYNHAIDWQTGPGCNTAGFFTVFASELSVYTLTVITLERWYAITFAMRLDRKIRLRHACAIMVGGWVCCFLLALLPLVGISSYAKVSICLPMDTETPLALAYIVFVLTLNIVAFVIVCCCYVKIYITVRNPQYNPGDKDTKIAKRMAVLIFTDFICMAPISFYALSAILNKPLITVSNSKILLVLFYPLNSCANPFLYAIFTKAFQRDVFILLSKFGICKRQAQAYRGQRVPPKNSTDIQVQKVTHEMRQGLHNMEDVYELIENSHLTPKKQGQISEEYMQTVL
UniProt P16473, 21-764 N170A/K218A/D219A/K244A: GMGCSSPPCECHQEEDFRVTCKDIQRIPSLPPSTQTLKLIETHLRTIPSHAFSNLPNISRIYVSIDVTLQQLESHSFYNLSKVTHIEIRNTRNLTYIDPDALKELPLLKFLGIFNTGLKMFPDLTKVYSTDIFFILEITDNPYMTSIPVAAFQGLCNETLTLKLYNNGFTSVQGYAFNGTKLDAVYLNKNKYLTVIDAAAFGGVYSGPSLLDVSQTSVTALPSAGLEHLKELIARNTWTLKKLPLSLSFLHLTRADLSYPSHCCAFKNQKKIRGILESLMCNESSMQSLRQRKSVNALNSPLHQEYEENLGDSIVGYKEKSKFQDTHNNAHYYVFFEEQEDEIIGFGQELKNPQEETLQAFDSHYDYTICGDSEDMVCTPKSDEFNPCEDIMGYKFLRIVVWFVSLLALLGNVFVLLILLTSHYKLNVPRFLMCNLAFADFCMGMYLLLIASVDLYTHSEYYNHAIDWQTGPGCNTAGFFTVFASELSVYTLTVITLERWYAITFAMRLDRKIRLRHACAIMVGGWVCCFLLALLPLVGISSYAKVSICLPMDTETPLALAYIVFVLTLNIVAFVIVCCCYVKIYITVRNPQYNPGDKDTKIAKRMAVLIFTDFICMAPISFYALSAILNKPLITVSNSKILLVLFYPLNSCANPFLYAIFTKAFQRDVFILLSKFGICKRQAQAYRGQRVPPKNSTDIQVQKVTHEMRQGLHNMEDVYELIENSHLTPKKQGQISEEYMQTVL

Data set [1] deals with TSHR on TSHR-293T cells (Homo sapiens) (UniProt P16473). Briefly: flow cytometry. The settings on record: Flow: DPBS, 5 mM MgCl2, 4.5 g/L glucose, 0.1 mg/mL yeast tRNA, 1 mg/mL BSA, 4 C 30 min, protein on the cell surface. (In general: In flow cytometry, cells or beads pass a laser one at a time.)
Data set [2] has the same target. As to the kind of experiment: competition with a labelled probe. The settings on record: protein on the cell surface.
A further data set deals with TSHR-LRD. Briefly: circular dichroism. The settings on record: YC3 titration lowers 215 nm ellipticity; recombinant protein; folded or branched DNA. Background: Circular dichroism is widely used to follow secondary structure.
Data set [3] deals with TSHR K218A (Homo sapiens) (UniProt P16473). Briefly: flow cytometry. The settings on record: largest decrease among single mutants; Flow: DPBS, 5 mM MgCl2, 4.5 g/L glucose, 0.1 mg/mL yeast tRNA, 1 mg/mL BSA, 4 C 30 min; protein on the cell surface; folded or branched DNA.
Data set [4] deals with endogenous TSHR on Nthy-ori 3-1 cells (Homo sapiens) (UniProt P16473). Briefly: flow cytometry. The settings on record: binding decreased by TSHR siRNA; Flow: DPBS, 5 mM MgCl2, 4.5 g/L glucose, 0.1 mg/mL yeast tRNA, 1 mg/mL BSA, 4 C 30 min; protein on the cell surface; folded or branched DNA.
The target of data set [5] is TSHR quadruple alanine mutant N170A,K218A,D219A,K244A (Homo sapiens) (UniProt P16473). As to the kind of experiment: flow cytometry. The settings on record: most reduced of all mutants; Flow: DPBS, 5 mM MgCl2, 4.5 g/L glucose, 0.1 mg/mL yeast tRNA, 1 mg/mL BSA, 4 C 30 min; protein on the cell surface; folded or branched DNA.
Data set [6] addresses TSHR in membrane protein extract of TSHR-293T cells (Homo sapiens) (UniProt P16473). Briefly: pull-down. The settings on record: biotin-YC3, no TSHR with beads alone or library; protein in a lysate after overexpression; folded or branched DNA.
The mark [7] stands for this setting: 500 nM aptamer, label: FAM, folded or branched DNA.
Where [8] appears, read: 250 nM aptamer, no binding to MOCK cells, label: FAM, single-stranded DNA.
The mark [9] stands for this setting: 250 nM aptamer, not among the more intense binders, label: FAM, single-stranded DNA.

On to “ACCGACCGTGCGATGAACAATCGATGGAAGATTGGGTCGCACCGGCCTCTTTCACTATGAGCGAGCCTGGCG [YC3-a]”, for which the binding result in data set [1] (setting [7]) is listed as “binds more weakly”. Regarding “ACCGACCGTGCTGGACTCAATCCATCGTCGACGAGCATACGAAGGGAGGGTATTGTAAGGGACTATGAGCGAGCCTGGCG [YC2]”, the binding result in data set [1] (setting [8]) was “binds”. Take “ACCGACCGTGCTGGACTCAGACGGAATCGTCCTTTGTCTACGTGCGGTCTAGACTGTATAGACTATGAGCGAGCCTGGCG [YC5]”: in data set [1] (setting [9]), the binding result is on record as “binds”. In the case of “ACCGACCGTGCTGGACTCAGATGAACAATCGATGGAAGATTGGGTCGCACCGGCCTCTTTCACTATGAGCGAGCCTGGCG [PS-YC3-PEG]”, the binding result in data set [1] (binding not compromised versus YC3, phosphorothioate at 5 nucleotides of each terminus, 3' thiol coupled to 10 kDa maleimide-PEG, label: FAM or none, synthetic backbone) was “binds”; in data set [2] (excess unlabeled PS-YC3-PEG inhibits FAM-YC3, phosphorothioate at 5 nucleotides of each terminus, 3' thiol coupled to 10 kDa maleimide-PEG, label: FAM or none, synthetic backbone) it was “binds”. For “ACCGACCGTGCTGGACTCAGATGAACAATCGATGGAAGATTGGGTCGCACCGGCCTCTTTCACTATGAGCGAGCCTGGCG [YC3]”, the binding result is listed as “binds” with TSHR-LRD; “binds more weakly” in data set [3]; “binds” in data set [4]; “binds more weakly” in data set [5]; “binds” in data set [1] (37 C, stronger signal than at 4 C, folded or branched DNA); “binds” in data set [6]. Further, the binding result in data set [2] (excess M22 antibody does not inhibit YC3 binding, folded or branched DNA) is listed as “binds”; in data set [2] (excess unlabeled YC3 inhibits FAM-PS-YC3-PEG, folded or branched DNA) it was “binds”. On to “ACCGACCGTGCTGGACTCAGATGAACTGGGTCGCACCGGCCTCTTTCACTATGAGCGAGCCTGGCG [YC3-b]”, for which, in data set [1] (setting [7]), the binding result is listed as “binds more weakly”. With “ACCGACCGTGCTGGACTCAGCCGTGACGTTCTACAGAGAACGGGTGGACCCGCCTCCTCACTATGAGCGAGCCTGGCG [YC8]”, the binding result in data set [1] (setting [8]) was “binds”. With “ACCGACCGTGCTGGACTCAGCCGTGACGTTCTACAGAGAACGGGTGGATCCCGCCTCTTCACTATGAGCGAGCCTGGCG [YC6]”, in data set [1] (setting [8]), the binding result is reported as “binds”.

In the case of “ACCGACCGTGCTGGACTCAGGGCGCATCTTTGGTAAGCAAAGATGGGTTGCAAGCCTCTCGACTATGAGCGAGCCTGGCG [YC1]”, the binding result in data set [1] (setting [8]) is reported as “binds”. As for “ACCGACCGTGCTGGACTCAGGGTGGGTCGTTTCATAGGAAACGGGTGGAACGCCTCTAGCCACTATGAGCGAGCCTGGCG [YC4]”, the binding result in data set [1] (setting [9]) was “binds”.

Regarding “ACCGACCGTGCTGGACTCATGGTCACATCTATCGTACTAGCATGGGTCAATTGGCCTCTTGACTATGAGCGAGCCTGGCG [YC7]”, in data set [1] (setting [8]), the binding result was “binds”.
